Results from patent CN110317268A.
No constants are given. Whether binding was seen depends on the method and setting. Some entries that bind do so weakly or less than the wild type.

Amino acid sequences for entries named in this document (tags omitted). Residues count along the entry.
UniProt P0DPI1, residues 872-1296: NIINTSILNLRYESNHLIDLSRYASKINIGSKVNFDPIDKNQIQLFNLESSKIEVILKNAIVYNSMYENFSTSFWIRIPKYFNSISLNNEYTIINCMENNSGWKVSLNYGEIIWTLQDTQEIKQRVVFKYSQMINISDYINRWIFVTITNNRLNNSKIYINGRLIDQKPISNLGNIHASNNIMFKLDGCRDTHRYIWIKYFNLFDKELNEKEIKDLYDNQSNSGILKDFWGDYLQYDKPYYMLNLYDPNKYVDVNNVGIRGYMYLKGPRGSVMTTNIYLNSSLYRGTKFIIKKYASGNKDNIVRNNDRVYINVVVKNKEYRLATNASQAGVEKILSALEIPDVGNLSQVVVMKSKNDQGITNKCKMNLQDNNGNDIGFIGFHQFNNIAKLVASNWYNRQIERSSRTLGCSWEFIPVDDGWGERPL

Target: BoNT/AHc (A型肉毒毒素重链C端) (Clostridium botulinum) (UniProt P0DPI1)
Assay: Western blot, 10 ng BoNT/AHc, BAS45 diluted 1:500

B1: 45号抗体 (中和A型肉毒毒素的鼠源单抗) (antibody, V domains shown)
VH: QVHLKESGPGLVAPSQSLSITCTVSGFSLSTYGVHWIRQPPGKGLEWLGVIWAVGSTNYNSALESRLNISKDNSQSQVFLRMTSLQTDDAMYYCASLPYGRFAYWGQGTLVTVSA
VL: SIVMTQTPRFLLVSAGDRITITCKASQNVNNDVAWYQQKPGQSPKLLIYYASNRYTGVPDRFSGSGYGTDFTFTINTVQAEDLAVYSCHQDYSSLTFGAGTKLEIK
binding: binds
